Test results from patent publication US20050085418A1 (CELLTECH R AND D, published 2005).
Results are given in words; binding and its absence hold for the method and conditions named. Some binding calls cover weakened binding; strength is not graded here.

The chains behind the UniProt entries cited, without tags or fusion partners. Residues count along the entry.
UniProt Q99P67, residues 24-213: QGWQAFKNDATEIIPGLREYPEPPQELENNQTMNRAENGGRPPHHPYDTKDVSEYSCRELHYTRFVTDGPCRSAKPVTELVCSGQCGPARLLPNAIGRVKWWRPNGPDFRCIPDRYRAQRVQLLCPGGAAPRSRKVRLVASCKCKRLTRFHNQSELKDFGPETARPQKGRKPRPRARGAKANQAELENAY
UniProt Q9BQB4, residues 24-213: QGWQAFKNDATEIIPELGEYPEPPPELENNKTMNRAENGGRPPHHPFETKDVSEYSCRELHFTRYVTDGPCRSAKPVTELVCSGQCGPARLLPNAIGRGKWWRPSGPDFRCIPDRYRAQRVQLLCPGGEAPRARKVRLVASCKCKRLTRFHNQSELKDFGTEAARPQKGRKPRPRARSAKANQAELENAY
UniProt P22004, residues 382-513: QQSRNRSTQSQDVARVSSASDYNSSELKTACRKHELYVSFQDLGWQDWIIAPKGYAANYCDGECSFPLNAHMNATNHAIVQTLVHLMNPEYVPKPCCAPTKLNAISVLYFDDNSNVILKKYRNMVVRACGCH

Legend:
[1] = target: poly-histidine-tagged rat sclerostin (rat) (UniProt Q99P67); test: SPR (legend of FIG. 6)
[2] = target: purified human sclerostin-FLAG® fusion protein (human) (UniProt Q9BQB4); test: SPR (legend of FIG. 6)
[3] = target: purified human sclerostin-FLAG® fusion protein (human) (UniProt Q9BQB4); test: SPR, chip-immobilised human sclerostin-FLAG (FIG. 6)
[4] = target: poly-histidine-tagged rat sclerostin (rat) (UniProt Q99P67); test: SPR, chip-immobilised His-tagged rat sclerostin (FIG. 6)
[5] = target: purified human sclerostin-FLAG® fusion protein (human) (UniProt Q9BQB4); test: SPR, human sclerostin-FLAG immobilised on the chip, BMP-6 injected
[6] = target: poly-histidine-tagged rat sclerostin (rat) (UniProt Q99P67); test: SPR, poly-histidine-tagged rat sclerostin immobilised on the chip, BMP-6 injected
[7] = target: purified human sclerostin-FLAG® fusion protein (human) (UniProt Q9BQB4); test: SPR on immobilised sclerostin, first injection of the coinject experiment [left panel]
[8] = target: purified human sclerostin-FLAG® fusion protein (human) (UniProt Q9BQB4); test: SPR on immobilised sclerostin: buffer or candidate anti-sclerostin antibody injected first, then BMP-6 [both panels]

Measured: binding

human BMP-6 (from UniProt P22004 382-513) (ligand)
binds: all assays above
